Among all 53,000 sequences or so, about 3,700 (7%) were called active.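 How the source made its calls: active means gene knockdowns whose robust z-score for IL-1 alpha signal is at least 2 or at most -2, so actives lie on both sides; inactive means the rest.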 The list shows a part of the results.

The assay can be described thus: Components of the Cytosolic LPS Sensing Pathway: Gene Identification via Genome-wide siRNA Screen.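 Further: robust z of the log signal after scaling to non-targeting control siRNA wells of the plate.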 The settings on record: RAW264.7 macrophages, IL-1a HTRF, actives lie on both sides, screened at 100 nM (by protocol), cells primed 5 h with Pam3CSK4 first. The method, boiled down:
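Cells (RAW264.7, 1×10^4 per well) were transfected with siRNA at 100 nM and cultured 48h at 37 degrees C. Pam3CSK4 was added for 5 hours; LipidA transfection followed for 24 hour. IL-1a was then measured by HTRF.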
As for GUCGCCGUGUAUGUAUCAUTT against Olfr727, the z-score was inactive: 0.812. Under GGUUAAAGGAAAAUGACACTT against Cdh6 stands inactive: -0.306. With GGCCAUGAUAUCCUCUUCUTT against Vars, the z-score is inactive: -0.628. Under GGAGCUGCUAUGUACACAUTT against Bptf stands inactive: 0.364; under GCUCCAGUUGCCUCUUUUUTT against Olfr900, inactive: -0.0521. Under CCAUAUCAUUGAUAUAGCUTT against Thoc3 stands inactive: -0.0534. On to GGUGGAGGAUUUUUCAGAUTT against Hs6st2, for which the z-score was active: 2.42. For GGGAAAUUUAAAAACCUGGTT against Hoxa2, the z-score is inactive: -0.139.

Regarding GCAGUGGGAGUAUACAUCUTT against Olfr847, the z-score is inactive: 0.502. Regarding GGAAUCCUUCACUGAUGAATT against Pilrb1, the z-score is inactive: -1.87.

Turning to GGAAGUUCGAUGUUCCUAGTT against Cep85, the z-score is inactive: 0.779. Under GGUUAAAGGUGUCUAUAAUTT against Smchd1 stands inactive: 0.743.

Turning to GGAAAUUAACUUCACUGCUTT against Olfr669, the z-score was inactive: -0.69.

For the sequence GCUAUUGGGUAGAUUGAUATT against Baat, the z-score is inactive: 0.251.

In the case of GGAUGUGCAUAGUUUAAAATT against Atg12, the z-score is inactive: 0.802. Consider GGAUUUCUUUGGUGAGACUTT against Gstk1, for which the z-score was inactive: -0.865. As for GCCCUACCCUCAUCAUAAATT against Tmem94, the z-score was inactive: -1.36.

Turning to CCCUAUUUGUCAGCGGUCUTT against Rbpms, the z-score was inactive: -1.94. Take GGUAUGUUGGAAAGUCUUUTT against Fbxl12os: the z-score is inactive: -0.163. The figure for GGUUGAUUUCCUGUUUCUGTT against Casp7 is inactive: 0.107; for GGAUUUUUCAGAUUCUAGATT against Hs6st2 it is inactive: 0.375; for GGUCAUGUAUUUUCUUCUATT against Olfr576 it is inactive: -0.677. The figure for GGAGUUUUACUUUUCUCUCTT against Cldn23 is inactive: 0.514. On to CCAUCUACAAACUUUGGCCTT against Sacs, for which the z-score is inactive: 0.669. For CCAGCUCUGUACUAAUCCUTT against Nol3, the z-score was inactive: -0.893. The figure for CCUCAUCUCAUAUGUUCAGTT against Trim30d is inactive: 0.34; for GGACUCUUUAGCACAAACUTT against Tlr11 it is inactive: -1.45; for UACUGAUUCUGCUGGACUCTT against Olfr1474 it is inactive: 0.481. With GGCUUUUAAGUUCAUCGCATT against Fam53c, the z-score is inactive: 0.305. Turning to GGUACUACUUCCUUUGGAATT against Slc38a2, the z-score was inactive: -0.861. CCUAAAUUUGACUGUGCCUTT against Nudt10: the z-score was active: 2.13. Under GGCAAGGAUAUAAAUUCACTT against Mak stands active: 2.47; under GUCAGUAUGGAGCGAUGGGTT against Zmiz2, inactive: 0.695; under GCAGGAGGUUUAUACAGCCTT against Spata5, inactive: -0.969.

As to GCAUAACCAAGUGUGAUGCTT against Actrt2, the z-score was inactive: -0.439. Under GGAGAAUGCCCUGAUAUAGTT against Hyal5 stands inactive: 1.56; under GGAUGAAUUUGGAGUUUCUTT against Rnf138rt1, inactive: -0.31. As for GCUGACCAUUUCCACCAGATT against B4galnt2, the z-score was inactive: -0.602.

Take GCCAGUCCUUCAAGUGUAUTT against Jak2: the z-score is active: 4.16. Under GCACAUCAUUUUGAGUAUUTT against Spg21 stands inactive: 1.15. CGUGUGAAGCAGUUAUGAUTT against Pbx3: the z-score was inactive: 1.02. The figure for GCGUAUUUUAUGGAUGAAATT against Nfkbiz is active: -2.42; for GGCAGCAUUAAAACUUAAGTT against Chtop it is active: 2.71; for GGAGAGUGCUUCACAGACATT against Crlf3 it is inactive: 0.639. On to GGACAAGGAGUAUUAUGUGTT against Nrxn3, for which the z-score was inactive: -0.372.

With CCACAAGCAGUGCUCUUUCTT against Cyp3a13, the z-score is active: -2.08. As for GGGUAUUGACUACACCAGCTT against Tnfrsf10b, the z-score is inactive: -0.409. With GGGCUUGAAGAAUAACAGATT against Tmem45b, the z-score is inactive: 0.148. The figure for GGGUAGGUCCAAAGCCUUCTT against Olfr902 is inactive: 0.164; for CCCAUGUACCACUUUGUCATT against Olfr430 it is active: -2.05; for GGAGUACAUGGUGAUGUUGTT against Prss43 it is active: -2.6. As for GGAGAAGAUCACAAGAGGGTT against Slc35b1, the z-score was inactive: -0.736. As for GGUAAAAACCCAGAGAUGATT against Rem2, the z-score is inactive: 0.616. The figure for GGGUACAAAGGCUGUAGUUTT against Sec61a1 is active: -2.42; for CCUGUAAUGCACUCUCCUATT against Snw1 it is inactive: 0.199; for GGCAUUUAAUCACUGGCUGTT against Ggps1 it is inactive: -1.01. Under GGCGAAGAAGACAGAAAAGTT against H2al1m stands inactive: 0.82; under UGGUGAAUACCAGUCUAAUTT against Tnfrsf23, inactive: 0.0551; under GGAAAUUCAGCAUGGAGCCTT against Vgll4, inactive: 0.934. As to GACAACAACUCUUGGCAGATT against Speer4d, the z-score was inactive: -0.526. The figure for CGAUGACAGGAAAGUUCGATT against Batf3 is inactive: -0.723; for CCUUACAGGACAUAAAACATT against Serinc1 it is inactive: -0.825. The figure for GCUUUGCGCUGCCCUUAUATT against Cxcl17 is inactive: 1.59; for GGCAGAAGAGUGGUACUUUTT against Fyn it is inactive: -1.63. For the sequence GGCUAAAGGCCUUCUUUUUTT against Reep3, the z-score was inactive: 0.622. Under GCCUUGACGUGCUUCAGAUTT against Golga7 stands inactive: 0.453; under GAACGUGAAGGCCAAGAUCTT against Ubb, inactive: -0.124. With GGAUAUCCCAUCUCCUGUUTT against Imp4, the z-score was inactive: -1.66. The figure for GGGUUCUGUGUAAAUGUAUTT against Gzma is inactive: 0.203.

Take CGGCAUUGUCACAGUUACGTT against Zkscan17: the z-score was inactive: -0.778. The figure for GGUGAUUAUUUUGUCAGCCTT against Olfr1228 is inactive: 1.86; for GCUUAGCUGUUAUGUUUUUTT against Atp6ap1 it is inactive: 1.81; for CGAAGAAAACCAUAAGGACTT against Bdnf it is inactive: -0.876.

Turning to GGUCAAUUGCACCUGGAACTT against Snx19, the z-score is inactive: -0.749.

For GGAAUGGAGUUUGGUUUUGTT against Extl1, the z-score is active: 2.67. The figure for UACCUUUAGCGCGCUUCCUTT against Oxt is inactive: 0.217; for GGUCUCAUAGAGUGUUACUTT against Anapc7 it is active: 4.38; for GGCAUCUGCAUUUGAUUAUTT against Cmtr2 it is inactive: -0.00519. In the case of GGCAGUUUGGUUUUUUUUGTT against Galnt7, the z-score was inactive: -0.408. The figure for GGAAGAAGAAGAUAAAGAATT against Noc2l is inactive: 0.952; for CGACAAACUACAUAGCAGATT against Brms1 it is inactive: 0.823; for “GGAAUGGAAUAGAUGCUCATT against Vmn2r-ps105” it is inactive: -0.514. GGACUGGUUUGACUUUAAATT against Oasl1: the z-score is inactive: -0.494. On to GCCACUCGAUAAUGAGUGGTT against Cmtr2, for which the z-score was inactive: 0.641. GGCUCAGCACUUUCCUAAUTT against Ifnab: the z-score is inactive: -0.327.

On to GGCUGUAGUUCUCACUGUGTT against Olfr902, for which the z-score was inactive: -1.66. On to GGCCUUUAUUCAGAUGUCATT against Zscan12, for which the z-score is active: -2.79. Under CGAUGUCAUCUUAGCUACGTT against B4gat1 stands inactive: -0.563. Under “GGCAACAAAUGCUGUGUAATT against 2610301B20Rik” stands inactive: -1.94.

With GGCGGAUGACCUAGAGGAUTT against Ddx60, the z-score is inactive: 1.19. Under GGCGGAUACUUGAUCGAAATT against Exoc3 stands active: 2.41. Take CGACAUAUCCUUCUUUUCUTT against Ppic: the z-score was inactive: 0.552. The figure for GCUUGCUCACUCUAGUACUTT against Olfr937 is inactive: 0.528; for CGGUCUUCAAGCUCCCUCATT against Olfr243 it is inactive: -1.82. On to GGCACUGGUUGCCAUAAAATT against Stk-ps2, for which the z-score was inactive: -0.203.

For CCAAGUAUGCUAGCAUGAUTT against Ndufa3, the z-score is inactive: -0.998. With GGUACACAGUCAUAAUGAGTT against Olfr975, the z-score is inactive: -1.61. Regarding GGACAUCCAGACCAAUGUCTT against Psmd8, the z-score is inactive: 1.1. The figure for GCAAUGAACAAAUUUGGUGTT against Naa15 is inactive: 0.102; for GGAUGGAGAUUAUGAAGAGTT against Pcsk9 it is inactive: -0.248. On to GGACAUGAAGCAAGACCAATT against Shfl, for which the z-score was inactive: 0.98. For GAAGAGACCUUCACAAAGUTT against Hnrnpll, the z-score is inactive: -1.52. For the sequence GGUUGUAAAGAUGAGAAAATT against Srfbp1, the z-score was inactive: -0.0426.

As for GGUGCUCCCUGCAUACUAUTT against Ngp, the z-score is inactive: 1.34. The figure for GGAAAGUUGUGAACUCUAATT against Olfr1157 is inactive: 0.583. As for GGAUAGUCCAAAGUUUUGUTT against Zfp740, the z-score was inactive: 1.24.

As to GCCAGAGUUUAUUAACUGCTT against Stxbp6, the z-score was inactive: -0.809.

The values above are taken from PubChem BioAssay AID1508600 (Functional Genomics Laboratory (NCATS/FGL), 2020).
